# PubChem BioAssay AID1508597 | Cure First – 2020
# Aim: 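Knock-downs altering ovarian cancer cell survival with or without PARP inhibitor rucaparib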 (primary screen)
# System: human ovarian carcinoma lines grown from tumours: OCI-P5x (papillary serous) and OCI-C5x (clear cell)
# Reagents: siRNA pool against human genes, 1.25 pmol siRNA per well
# Duration: 72 h or 96 h, depending on the cell culture
# Challenge: rucaparib 20 µM (about IC30) or vehicle, present until read-out
# Rucaparib or vehicle: Vehicle
# Cell line: OCI-P5x (serous)
# Measurement: 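ATP luminescence measured at 72 or 96 h according to the culture, then normalised and expressed as percent viability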
# Scale: viability, normalised: higher = more viable cells remaining
# Active means: 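Active when normalised viability falls below 80 percent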
# Meaning of the calls: active = viability under 80%; inactive = viability 80% or more
# This is an unselected part of the about 2,100 reagents, in one setting of the screen. 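Calls flag viability under 80% in either arm, not effects specific to rucaparib; the reference for percent is not stated.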 A reagent listed more than once was tested more than once; the source does not tell the runs apart. Reagent sequences are not shown. Not stated in the record: the 100% reference.
gene,technical replicate,"viability, normalised (%)",Call
PHF2 (GeneID 5253),1,68.9,active
PHF2 (GeneID 5253),2,59.2,active
PHF2 (GeneID 5253),3,93.5,inactive
TDP2 (GeneID 51567),1,65.4,active
TDP2 (GeneID 51567),1,47,active
TDP2 (GeneID 51567),2,60.5,active
TDP2 (GeneID 51567),2,51.1,active
TDP2 (GeneID 51567),3,62.6,active
TDP2 (GeneID 51567),3,59.6,active
MUSK (GeneID 4593),1,84.7,inactive
MUSK (GeneID 4593),2,78.5,active
MUSK (GeneID 4593),3,85,inactive
DDX60 (GeneID 55601),1,71,active
DDX60 (GeneID 55601),2,72.8,active
DDX60 (GeneID 55601),3,65.8,active
SUPT16H (GeneID 11198),1,75.4,active
SUPT16H (GeneID 11198),1,66.7,active
SUPT16H (GeneID 11198),2,77.9,active
SUPT16H (GeneID 11198),2,58,active
SUPT16H (GeneID 11198),3,63.1,active
SUPT16H (GeneID 11198),3,64.3,active
MED4 (GeneID 29079),1,70.7,active
MED4 (GeneID 29079),2,73.6,active
MED4 (GeneID 29079),3,79.4,active
IFNAR1 (GeneID 3454),1,65.1,active
IFNAR1 (GeneID 3454),2,65.1,active
IFNAR1 (GeneID 3454),3,103,inactive
RAE1 (GeneID 8480),1,45.3,active
RAE1 (GeneID 8480),2,56.6,active
RAE1 (GeneID 8480),3,56.9,active
RPS6KA1 (GeneID 6195),1,77.9,active
RPS6KA1 (GeneID 6195),2,74,active
RPS6KA1 (GeneID 6195),3,74.8,active
GMEB1 (GeneID 10691),1,53.8,active
GMEB1 (GeneID 10691),2,55.2,active
GMEB1 (GeneID 10691),3,52.4,active
ATRX (GeneID 546),1,76,active
ATRX (GeneID 546),1,61.4,active
ATRX (GeneID 546),2,79.6,active
ATRX (GeneID 546),2,69,active
ATRX (GeneID 546),3,73.2,active
ATRX (GeneID 546),3,75.3,active
IKZF1 (GeneID 10320),1,70,active
IKZF1 (GeneID 10320),2,58.3,active
IKZF1 (GeneID 10320),3,85.8,inactive
JUN (GeneID 3725),1,80.6,inactive
JUN (GeneID 3725),2,99.1,inactive
JUN (GeneID 3725),3,124,inactive
GUCY2F (GeneID 2986),1,125,inactive
GUCY2F (GeneID 2986),2,102,inactive
GUCY2F (GeneID 2986),3,125,inactive
NME5 (GeneID 8382),1,80.6,inactive
NME5 (GeneID 8382),1,93.3,inactive
NME5 (GeneID 8382),2,72.9,active
NME5 (GeneID 8382),2,81.4,inactive
NME5 (GeneID 8382),3,81.1,inactive
NME5 (GeneID 8382),3,90.7,inactive
MED13 (GeneID 9969),1,63.1,active
MED13 (GeneID 9969),2,73,active
MED13 (GeneID 9969),3,70.2,active
DLG2 (GeneID 1740),1,88.1,inactive
DLG2 (GeneID 1740),2,82.9,inactive
DLG2 (GeneID 1740),3,90.3,inactive
EPC1 (GeneID 80314),1,51.8,active
EPC1 (GeneID 80314),2,42.1,active
EPC1 (GeneID 80314),3,56.2,active
NCOR2 (GeneID 9612),1,41,active
NCOR2 (GeneID 9612),2,47.8,active
NCOR2 (GeneID 9612),3,51.5,active
MIP (GeneID 4284),1,74.5,active
MIP (GeneID 4284),2,87.1,inactive
MIP (GeneID 4284),3,84.8,inactive
POLD2 (GeneID 5425),1,85.7,inactive
POLD2 (GeneID 5425),2,89.4,inactive
POLD2 (GeneID 5425),3,61.1,active

Taken from above.
Result for DLG2 (GeneID 1740), technical replicate 2 under “viability, normalised (%)”: 82.9
For “viability, normalised (%)”, GUCY2F (GeneID 2986), technical replicate 3 is entered as 125
Under “viability, normalised (%)”, MED13 (GeneID 9969), technical replicate 2 reads 73
Entry of RPS6KA1 (GeneID 6195), technical replicate 3 under “viability, normalised (%)”: 74.8
IKZF1 (GeneID 10320), technical replicate 2, viability, normalised (%) → 58.3
MED13 (GeneID 9969), technical replicate 3, Call → active
